Several values for one entry are separate records, joined by “and”; a condition that tells them apart may be missing. Equal values may be shown once. The campaign covered roughly 300,000 compounds. About 3,700 (1.2%) were called active. The inconclusive results got no clear call from the source; some entries with a clear call stand among them for comparison. Calls come from the whole dose curve; tested in HEK293 cells. Potencies beside an inconclusive call are fits to weak or partial responses and may not hold up.
Test: qHTS for Inhibitors of binding or entry into cells for Lassa Virus; note: nearly all actives have a fitted effect of over 50% in size
Conditions: Lassa virus pseudotype entry inhibition, cell reporter; activity change, negative = inhibition: at 37.9 µM (top of the series) unless noted
For `C/C(=N\Nc1cccc2cccnc12)c1ccccn1`, the Potency was inconclusive: 5.62 µM [inhibitor, partial curve, poor fit]. With `Cc1ccc2nc(N/C(=N/S(=O)(=O)c3cccs3)c3ccccc3Cl)sc2c1` the “activity change, negative = inhibition” value was inactive: -15.4%. For `O=C(N/N=C/c1ccc2c(c1)OCO2)c1cccs1`, the Potency was inconclusive: 4.11 µM [activator, single point]. For `Cc1[nH]c2ccccc2c1C(O)CN1CCN(c2cccc(C(F)(F)F)c2)CC1` (configuration not stated), the Potency was inconclusive: 12.6 µM [inhibitor, partial curve, poor fit]. With `O=c1c2ccccc2nnn1CSc1nc2ccccc2[nH]1` the Potency was inconclusive: 1.58 µM [activator, partial curve, poor fit]. For `O=C(Nc1cccc(S(=O)(=O)N2CCCCC2)c1)C1CCCN1S(=O)(=O)c1ccccc1F` (configuration not stated), the Potency was inconclusive: 35.5 µM [inhibitor, single point]. With `CC1=NN(C(=O)c2ccc(Br)cc2)C(O)(C(F)(F)OC(F)(F)F)C1` (configuration not stated) the “activity change, negative = inhibition” value was inactive: 1.48%. With `C=CCC(Nc1ccc(OC)cc1)C(=O)OCC` (configuration not stated) the Potency was inconclusive: 0.0008 µM [inhibitor]. In the case of `COc1cccc2c1[C@@H]1CN(CCCCn3c(=O)[nH]c4c(sc5ncc(-c6ccccc6)nc54)c3=O)C[C@@H]1CO2`, the Potency is reported as inconclusive: 29.1 µM [inhibitor, single point]. In the case of `O=C(CCNC(=O)c1ccc(Cl)cc1)NCC(c1ccco1)N1CCCC1` (configuration not stated), the “activity change, negative = inhibition” value is reported as inactive: -4.61% [at 46.1 µM]. With `CC(C)(C)C(=O)N1CCN(c2ncnc3scc(-c4ccccc4)c23)CC1` the Potency was inconclusive: 35.5 µM [inhibitor, partial curve, poor fit]. In the case of `O=C(CCNC(=O)c1ccc(Cl)cc1)Nc1cccc(S(=O)(=O)N2CCCCCC2)c1`, the Potency is reported as inconclusive: 35.5 µM [inhibitor, single point]. In the case of `CCOC(=O)/C(=N/Nc1ccc(OC)cc1)N1CCCc2ccccc21`, the “activity change, negative = inhibition” value is reported as inactive: -15.1%. With `O=C1CC(C(=O)Nc2cccc(F)c2)n2ncnc2N1` (configuration not stated) the “activity change, negative = inhibition” value was inactive: 4.03%. In the case of `Clc1ccc(CON/C=N/c2ncnc3sccc23)cc1`, the Potency is reported as inconclusive: 35.5 µM [inhibitor, single point]. With `CC1(CCc2ccccc2)NC(=S)N(c2ccc(Cl)cc2)N1` (configuration not stated) the Potency was inconclusive: 3.55 µM [inhibitor, single point]. For `CC(=O)c1ccc(NC(=O)C2=CC(c3cccs3)=NS(=O)(=O)N2C)cc1`, the Potency was “inactive and inconclusive: 1.41 µM [inhibitor, single point]”. For `Cc1c(CCCl)c(Cl)n2c(nc3ccccc32)c1C#N`, the Potency was active: 11.2 µM. For `Cc1cccc(/C=N/Nc2cc(N3CCOCC3)nc(N3CCOCC3)n2)c1`, the Potency was inconclusive: 1.58 µM [inhibitor, full curve, poor fit]. In the case of `O=C(CSc1ccccn1)Nc1ccc2c(c1)OCCO2`, the Potency is reported as inconclusive: 35.5 µM [inhibitor, single point]. With `CCO/C=C1/C(=O)N(CC)c2ccccc21` the Potency was inconclusive: 12.6 µM [inhibitor, partial curve]. With `COc1cccc(C(=O)NC(=O)Nc2ccc(-n3nc(C(F)(F)F)cc3C(F)(F)F)cc2)c1` the “activity change, negative = inhibition” value was inactive: 4.7% [at 46.1 µM]. For `CCOc1ccc(C2C(C#N)=C(N)Oc3cc(C)n(Cc4ccco4)c(=O)c32)cc1OC` (configuration not stated), the Potency was inconclusive: 12.6 µM [inhibitor, partial curve]. In the case of `O=C(c1cc2nc(-c3ccco3)cc(C(F)(F)F)n2n1)N1CCN(Cc2ccccc2)CC1`, the Potency is reported as inconclusive: 14.6 µM [inhibitor, partial curve, poor fit]. With `Cc1ccc(-c2csc(NC(=O)/C=C/c3ccco3)c2C(=O)O)cc1` the Potency was inconclusive: 35.5 µM [inhibitor, single point]. With `O=C(Nc1nonc1NC(=O)c1cccs1)c1cccs1` the Potency was active: 8.91 µM. With `CCN(CC)C(=O)c1ccc(NC(=O)COc2ccccc2F)cc1` the Potency was inconclusive: 35.5 µM [inhibitor, single point]. In the case of `Cc1cccc(-n2c(N)c(C(=O)NCCN3CCOCC3)c3nc4ccccc4nc32)c1`, the Potency is reported as inconclusive: 35.5 µM [inhibitor, single point]. With `COc1ccc(C(=O)Nc2ccc3oc(-c4ccc(OC)cc4)nc3c2)cc1` the Potency was inconclusive: 14.1 µM [activator, single point]. For `CCc1cccc(NC(c2nnc(-c3ccccc3)o2)c2ccc(F)cc2Cl)c1` (configuration not stated), the Potency was inconclusive: 10 µM [activator, single point]. With `Cc1ccc(NC(=O)NCC2CCN(Cc3cccc(Cl)c3)CC2)cc1Cl` the Potency was “inactive”. In the case of `CC1CC(C)CN(C(=O)CSc2nc(Cc3cccs3)nc3ccccc23)C1` (configuration not stated), the Potency is reported as inconclusive: 29.1 µM [inhibitor, single point]. In the case of `Cc1ccc(-n2cc(CNCCN3CCOC3=O)c(-c3cccc(C)c3)n2)cc1`, the Potency is reported as inconclusive: 35.5 µM [inhibitor, single point]. In the case of `Cc1ccc(/C=N/Nc2nncc(-c3ccccc3)n2)o1`, the “activity change, negative = inhibition” value is reported as inactive: -3.1%. In the case of `CCn1c(-c2ccc3ncccc3c2)n[nH]c1=S`, the “activity change, negative = inhibition” value is reported as inactive: -3.9%. For `O=C(CN(c1cccc(Cl)c1)S(=O)(=O)c1ccc(Cl)cc1)N1CCc2ccccc2C1`, the Potency was inconclusive: 29.1 µM [inhibitor, single point] and inconclusive: 3.16 µM [inhibitor, single point]. For `CCCC(=O)N(CCN1CCOCC1)c1nc2cc(C)c(C)cc2s1`, the Potency was inconclusive: 10 µM [activator, partial curve, poor fit]. With `CC(NC(=O)c1cccc(NC(=O)c2nsc3ccccc23)c1)c1ccccc1` (configuration not stated) the Potency was inconclusive: 10 µM [inhibitor, single point]. With `CN(C)S(=O)(=O)c1ccc(NC(=O)Cn2c(-c3ccccc3)noc2=O)cc1` the “activity change, negative = inhibition” value was inactive: 0.84%. In the case of `CN(C(=O)CSc1nc2ccc(NC(=O)CCc3ccccc3)cc2s1)c1ccccc1`, the Potency is reported as inconclusive: 22.4 µM [inhibitor, single point]. For `CCOC(=O)N1CCN(S(=O)(=O)c2ccc(C)c([N+](=O)[O-])c2)CC1`, the “activity change, negative = inhibition” value was inactive: 6.44%. In the case of `CCCNC(=O)c1nnsc1S(=O)c1ccc(Cl)cc1` (configuration not stated), the Potency is reported as inconclusive: 35.5 µM [inhibitor, single point]. With `O=C(CCN1CCCCO1)N1CCCC(Nc2ccc(F)cc2)C1` (configuration not stated) the “activity change, negative = inhibition” value was inactive: -11.1%. For `COc1ccc(OCC(O)CN2CCC(CN3C(=O)c4cccc5cccc(c45)C3=O)CC2)cc1` (configuration not stated), the Potency was inconclusive: 2.51 µM [inhibitor, full curve, poor fit]. In the case of `Cc1ccc(C)c(Cn2c(SCC(=O)N(C)Cc3ccccc3)nc3ccccc32)c1`, the Potency is reported as inconclusive: 14.1 µM [inhibitor, single point]. For `Cn1nccc1C(=O)NC(=S)Nc1sc2c(c1C#N)CCCCC2`, the Potency was inconclusive: 8.2 µM [activator, partial curve, poor fit]. For `N#CC(C#N)=C1C=CC=CN1/C(=C\c1ccco1)C(=O)c1ccc(Br)cc1`, the Potency was inconclusive: 20 µM [inhibitor, single point]. For `Cc1noc(Cn2c(=O)c3ccccc3n(CC(=O)Nc3ccc(Cl)cc3)c2=O)n1`, the Potency was inconclusive: 2.51 µM [activator, full curve]. In the case of `c1ccc(-c2noc(C34CC5CC(CC(C5)C3)C4)n2)nc1`, the Potency is reported as inconclusive: 32.6 µM [inhibitor, single point]. For `O=C(Nc1cc(Cl)ccc1Cl)C1(c2cccs2)CCOCC1`, the Potency was inconclusive: 12.6 µM [inhibitor, single point]. For `Cc1ccc(OCCNC(=O)c2ccc(COc3ccccc3)o2)cc1`, the Potency was inconclusive: 8.91 µM [inhibitor, partial curve, poor fit]. For `COc1ccc(C=NNc2nc3ccccc3s2)cc1`, the Potency was inconclusive: 0.891 µM [inhibitor, full curve, poor fit]. For `O=C(Cc1coc2ccc3ccccc3c12)N1CCc2ccccc21`, the “activity change, negative = inhibition” value was inactive: -2.49%. With `COc1cccc(C(=O)NCCNC(=O)c2cnccn2)c1` the “activity change, negative = inhibition” value was inactive: -8.24% [at 46.1 µM]. In the case of `O=C(NCc1ccncc1)c1cccc(S(=O)(=O)Nc2ccc(SC(F)F)cc2)c1`, the “activity change, negative = inhibition” value is reported as inactive: -24.3%. In the case of `CCOc1ccc(NC(=O)CSc2ncc3c(n2)-c2cc(Cl)ccc2N(C)S3(=O)=O)cc1`, the “activity change, negative = inhibition” value is reported as inactive: -13.8% [at 46.1 µM]. For `O=C(NN=C1c2ccccc2-c2ccccc21)c1cccc(Br)c1`, the Potency was inconclusive: 25.1 µM [inhibitor, single point]. With `CC(=O)Nc1cccc(NC(=O)Nc2ccc(C)c(Cl)c2)c1` the Potency was inconclusive: 0.501 µM [activator, single point]. In the case of `Cc1nn(C2CCS(=O)(=O)C2)c(Cl)c1/C=C/C(=O)OCC(=O)c1c[nH]c2ccccc12` (configuration not stated), the “activity change, negative = inhibition” value is reported as inactive: -15%. With `COc1ccc(C2=NC(c3ccccc3)CO2)cc1` (configuration not stated) the Potency was inconclusive: 0.13 µM [activator, full curve, poor fit]. With `Nc1nc(NC2CCCCC2)nc(NCCO)c1[N+](=O)[O-]` the Potency was inconclusive: 35.5 µM [activator, single point]. With `CCc1nnc(NC(=O)c2cc3c(s2)CCCCC3)s1` the Potency was inconclusive: 0.316 µM [activator, partial curve, poor fit]. For `Cc1nnc(SCC(=O)Nc2ccc(N3CCOCC3)cc2)o1`, the Potency was inconclusive: 0.231 µM [inhibitor, full curve, poor fit]. With `O=C(OCc1ccccc1)c1ccc2c(c1)-c1ccccc1C2=O` the Potency was inconclusive: 1.12 µM [inhibitor, full curve, poor fit]. In the case of `CC(O)/C=C/c1ccc2ccccc2n1` (configuration not stated), the Potency is reported as inconclusive: 1.3 µM [inhibitor, full curve, poor fit]. With `O=C(C[n+]1cc(Br)cc(Br)c1)c1ccccc1` the “activity change, negative = inhibition” value was inactive: -0.189%. In the case of `COc1cccc(-n2c(-c3ccco3)nc3c(cnn3-c3ccc(C)cc3)c2=O)c1`, the Potency is reported as inconclusive: 8.91 µM [inhibitor, partial curve].
% is set by controls: 0 for no effect and ±100 for the full control effect; potency is the fitted concentration of half-maximal effect.
